Measurements taken from PMC5811984.
Results are given in words; binding and its absence hold for the method and conditions named. In cells and extracts the contact can be indirect. Some entries that bind do so weakly or less than the wild type. Where a sequence is shown, tags or fusion partners need not be part of it.

The chains behind the UniProt entries cited, without tags or fusion partners.
UniProt Q5S007: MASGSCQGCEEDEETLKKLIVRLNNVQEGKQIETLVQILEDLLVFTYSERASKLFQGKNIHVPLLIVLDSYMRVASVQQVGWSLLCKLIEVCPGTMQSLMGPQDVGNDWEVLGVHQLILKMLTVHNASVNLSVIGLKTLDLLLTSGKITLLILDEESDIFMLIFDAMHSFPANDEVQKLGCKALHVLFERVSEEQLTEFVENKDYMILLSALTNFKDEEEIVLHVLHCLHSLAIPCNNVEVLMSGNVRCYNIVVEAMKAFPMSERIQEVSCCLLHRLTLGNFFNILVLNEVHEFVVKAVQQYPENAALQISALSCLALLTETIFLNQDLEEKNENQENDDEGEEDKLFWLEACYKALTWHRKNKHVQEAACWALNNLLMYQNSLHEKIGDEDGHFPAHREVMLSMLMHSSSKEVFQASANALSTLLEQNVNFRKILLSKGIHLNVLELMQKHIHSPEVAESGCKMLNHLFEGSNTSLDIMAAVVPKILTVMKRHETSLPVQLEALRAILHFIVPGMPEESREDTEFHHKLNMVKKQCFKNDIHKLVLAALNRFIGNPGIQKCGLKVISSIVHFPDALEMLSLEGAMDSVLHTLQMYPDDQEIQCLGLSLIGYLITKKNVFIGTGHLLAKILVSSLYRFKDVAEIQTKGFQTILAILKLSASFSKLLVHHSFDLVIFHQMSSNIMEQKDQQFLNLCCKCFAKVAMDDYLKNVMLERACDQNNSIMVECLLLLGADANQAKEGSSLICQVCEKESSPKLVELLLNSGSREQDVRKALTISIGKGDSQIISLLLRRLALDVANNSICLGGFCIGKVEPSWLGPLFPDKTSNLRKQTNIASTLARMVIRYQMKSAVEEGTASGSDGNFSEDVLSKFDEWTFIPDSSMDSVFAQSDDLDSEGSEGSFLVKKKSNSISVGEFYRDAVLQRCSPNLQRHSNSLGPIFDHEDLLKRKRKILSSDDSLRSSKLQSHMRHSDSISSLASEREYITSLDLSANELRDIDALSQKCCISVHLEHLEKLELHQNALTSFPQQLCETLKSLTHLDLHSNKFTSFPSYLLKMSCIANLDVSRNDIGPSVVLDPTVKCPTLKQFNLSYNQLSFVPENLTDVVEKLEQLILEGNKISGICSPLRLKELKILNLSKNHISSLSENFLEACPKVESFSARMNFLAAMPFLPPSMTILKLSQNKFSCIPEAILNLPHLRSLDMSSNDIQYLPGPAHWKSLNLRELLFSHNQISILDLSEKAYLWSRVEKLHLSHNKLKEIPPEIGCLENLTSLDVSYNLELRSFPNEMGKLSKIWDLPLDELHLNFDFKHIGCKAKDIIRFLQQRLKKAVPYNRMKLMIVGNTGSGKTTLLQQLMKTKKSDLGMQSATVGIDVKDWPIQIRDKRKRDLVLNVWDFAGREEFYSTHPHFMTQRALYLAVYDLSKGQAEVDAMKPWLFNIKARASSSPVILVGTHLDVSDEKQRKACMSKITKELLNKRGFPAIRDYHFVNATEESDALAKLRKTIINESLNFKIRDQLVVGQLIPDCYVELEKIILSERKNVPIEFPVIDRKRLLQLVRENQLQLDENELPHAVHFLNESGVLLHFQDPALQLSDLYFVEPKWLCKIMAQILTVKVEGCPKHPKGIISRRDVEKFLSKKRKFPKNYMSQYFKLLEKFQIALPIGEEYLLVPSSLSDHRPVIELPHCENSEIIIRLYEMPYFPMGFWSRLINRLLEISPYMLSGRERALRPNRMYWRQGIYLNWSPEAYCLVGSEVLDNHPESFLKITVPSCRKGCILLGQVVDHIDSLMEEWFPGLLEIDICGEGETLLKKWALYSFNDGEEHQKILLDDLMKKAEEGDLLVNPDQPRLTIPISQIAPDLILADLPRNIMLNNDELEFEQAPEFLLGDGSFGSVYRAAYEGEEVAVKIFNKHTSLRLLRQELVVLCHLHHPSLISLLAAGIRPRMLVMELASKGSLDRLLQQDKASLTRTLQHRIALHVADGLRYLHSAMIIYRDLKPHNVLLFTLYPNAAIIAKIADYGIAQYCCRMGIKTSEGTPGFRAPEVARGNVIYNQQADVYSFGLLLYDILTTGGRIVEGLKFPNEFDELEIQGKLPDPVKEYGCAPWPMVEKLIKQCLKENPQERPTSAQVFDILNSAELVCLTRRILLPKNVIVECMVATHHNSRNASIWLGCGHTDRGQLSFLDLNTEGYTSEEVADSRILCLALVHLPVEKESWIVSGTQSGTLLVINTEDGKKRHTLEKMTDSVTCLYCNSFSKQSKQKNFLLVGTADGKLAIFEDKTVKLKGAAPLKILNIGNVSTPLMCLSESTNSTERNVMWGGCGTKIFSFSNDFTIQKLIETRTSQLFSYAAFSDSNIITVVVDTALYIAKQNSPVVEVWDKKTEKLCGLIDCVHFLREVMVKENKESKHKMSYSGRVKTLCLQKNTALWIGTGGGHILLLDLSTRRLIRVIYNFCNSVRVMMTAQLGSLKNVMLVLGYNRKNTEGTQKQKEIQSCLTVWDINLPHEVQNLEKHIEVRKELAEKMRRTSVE

Molecular target: Myc-tagged LRRK2 (leucine-rich repeat kinase 2), wild-type (UniProt Q5S007)
Assay: co-IP; HEK-293 co-transfected with myc-LRRK2 and V5-Rab; lysate (50 mM Tris-HCl pH 7.5, 0.5% TX-100, 150 mM NaCl, 0.5 mM EGTA) immunoprecipitated with anti-myc on protein-G-agarose overnight at 4°C; blotted with anti-V5

B1: V5-tagged Rab3c (protein, UniProt Q96E17 1-227)
chain: MRHEAPMQMASAQDARYGQKDSSDQNFDYMFKLLIIGNSSVGKTSFLFRYADDSFTSAFVSTVGIDFKVKTVFKNEKRIKLQIWDTAGQERYRTITTAYYRGAMGFILMYDITNEESFNAVQDWSTQIKTYSWDNAQVILVGNKCDMEDERVISTERGQHLGEQLGFEFFETSAKDNINVKQTFERLVDIICDKMSESLETDPAITAAKQNTRLKETPPPPQPNCAC
Question: How did the binding turn out when B1 was run?
Answer: binds
